Data on 19 compounds can be found in the supplement of paper PMC12889115.

Molecules are shown by their SMILES. Some of the results follow. These are raw signals, not scaled to a control.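 First-pass screen: polymyxin B was added at a level that permeabilizes the Salmonella outer membrane while sparing the inner membrane. DMSO wells, with and without polymyxin B, defined maximum growth. Because plates differed from one another, each plate's data were ranked separately and the compounds with the lowest OD600 were carried forward as hits.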

This assay has as its system Salmonella enterica serovar Typhimurium SL1344. As to the kind of experiment: bacterial growth OD600 after 18 h with compound and polymyxin B; higher = more bacterial growth (less inhibition). The settings on record: 50 µM, Mueller-Hinton broth.

In the case of `O=C(CCC1CCN(C(=O)CCn2cccn2)CC1)Nc1ccc(F)c(Cl)c1`, the “bacterial growth OD600” value (polymyxin B 1 µg/mL) is 0.966.

Turning to `Cc1nnc(-c2cccc(NC(=O)C3CCCCN3C(=O)C3CCCC3)c2)s1` (centres undefined), the “bacterial growth OD600” value (polymyxin B 1 µg/mL) came to 0.901.

As to `Cc1nc(N2CCCCCCC2)ncc1C(C)NCc1ccsc1` (centres undefined), the “bacterial growth OD600” value (polymyxin B 1 µg/mL) was 0.001.

On to `Cc1cccc(NC(=O)CCC2CCN(C(=O)C3=NN(C)C(=O)CC3)CC2)c1`, for which, under “polymyxin B 1 µg/mL”, the “bacterial growth OD600” value amounted to 0.975.

Take `CCO[C@H]1[C@H](NC(=O)CC)c2ccccc2C12CCN(C(=O)c1ccc(C#CC(C)(C)O)o1)CC2`: the “bacterial growth OD600” value (polymyxin B 0.75 µg/mL) is 0.858.

For `CN(C)S(=O)(=O)N1CCC(Oc2ccc(C(=O)NCCN3CCCCC3)cc2)CC1`, for the setting “polymyxin B 1 µg/mL”, the “bacterial growth OD600” value turned out to be 1.2.

As for `O=C(NCc1cnc(-c2ccccc2)s1)c1coc(CN2CCc3ccccc3C2)n1`, the “bacterial growth OD600” value (polymyxin B 1 µg/mL) was found to be 0.787.

As for `CC(C)Cn1cc(C(=O)N2CCCCCC2)c(=O)c(C(=O)N2CCN(c3ccc(Cl)cc3)CC2)c1`, the “bacterial growth OD600” value (polymyxin B 0.75 µg/mL) was 0.81.

Turning to `CSCCC(=O)N1CCc2onc(-c3ccc4c(c3)OCO4)c2C1`, the “bacterial growth OD600” value (polymyxin B 0.75 µg/mL) was 0.904.

With `Cc1nc(N2CCC(C(=O)NCc3ccc(F)c(F)c3)CC2)nc2cc(S(C)(=O)=O)ccc12`, for the setting “polymyxin B 0.75 µg/mL”, the “bacterial growth OD600” value was 0.799.

Regarding `OCC1(CCc2ccccc2)CCCN(Cc2c[nH]cn2)C1` (centres undefined), for the setting “polymyxin B 0.75 µg/mL”, the “bacterial growth OD600” value was found to be 0.942.

For the compound `COc1ncccc1C(=O)NCC1Cc2cc(-c3nc(C)cnc3C)ccc2O1` (centres undefined), the “bacterial growth OD600” value (polymyxin B 0.75 µg/mL) stood at 0.928.

`OCC1CCN(c2ncc3c(n2)CCCC3NCC2CCCC2)CC1` (centres undefined): the “bacterial growth OD600” value (polymyxin B 0.75 µg/mL) worked out at 0.774.

Regarding `CCCC(=O)N1CCC(N2CCCC(C(=O)NC3CC3)C2)CC1` (centres undefined), for the setting “polymyxin B 0.75 µg/mL”, the “bacterial growth OD600” value was determined as 0.891.

In the case of `CSCC(=O)N1CCC(C2CCN(CCc3ccccc3)CC2)C1` (centres undefined), the “bacterial growth OD600” value (polymyxin B 1 µg/mL) was 0.957.

As for `Cc1ccc(CN(C)C(=O)CC2(c3ccccc3)CC(=O)N(CCCOc3cccnc3)C2=O)cc1` (centres undefined), for the setting “polymyxin B 0.75 µg/mL”, the “bacterial growth OD600” value came to 0.002.

Turning to `C=CCCC(=O)N(CCc1ccccc1)CC1CCCN(C)C1` (centres undefined), the “bacterial growth OD600” value (polymyxin B 1 µg/mL) came out at 0.961.

As for `CCCNC(=O)N1CCC(N2CCCC(C(=O)NC3CC3)C2)CC1` (centres undefined), for the setting “polymyxin B 0.75 µg/mL”, the “bacterial growth OD600” value is 0.864.

For the compound `CC(=O)c1ccc(-c2cc(F)cc3c2OC(CNC(=O)[C@@H]2C[C@@H]4C=C[C@H]2C4)C3)s1` (some centres undefined), the “bacterial growth OD600” value (polymyxin B 0.75 µg/mL) came to 0.766.
